This is one part of the list.
Tested on: T1, CTL2-GFP (C. trachomatis L2/434/Bu, GFP-expressing)
T1 construct: L2/434/Bu, GFP-expressing
Parameters: species or system HeLa; Intracellular C. trachomatis growth in HeLa cells, bulk GFP fluorescence relative to DMSO
Conditions: bulk GFP, single well; 28.5 h, 10 µM; inhibitor

Row | Structure (SMILES) | % of control remaining
1 | O=C(CCS(=O)(=O)Cc1ccccc1)Nc1cc(C(F)(F)F)ccc1Cl [CBK268399] | 88.092%
2 | N#CCSC1=CC(=O)CC(c2ccccc2)S1 (stereo not shown) [CBK008460] | 90.9289%
3 | O=C(CN1CCOCC1)N1CCN(C(=O)c2ccc(Cl)cc2Cl)CC1 [CBK028992] | 115.274%
4 | Cc1cc(/C=C2/NC(=O)NC2=O)c(C)n1-c1ccc(S(N)(=O)=O)cc1 [CBK264747] | 123.557%
5 | CNS(=O)(=O)c1cc(C(=O)N2CCN(c3ccccc3)CC2)ccc1OC [CBK270192] | 143.315%
6 | CCC(CN1CCN(C)CC1)NC(=O)Cc1coc2cc(C)ccc12 (stereo not shown) [CBK282790] | 124.437%
7 | CCCNc1nc(Cl)nc(NCc2cccnc2)n1 [CBK261995] | 109.541%
8 | COc1ccc(Oc2cncc(OC3CCN(CC(N)=O)C3)n2)cc1OC (stereo not shown) [CBK084402] | 99.8612%
9 | Cc1cc(C)nc(N2CCC(CC(=O)Nc3ccccc3CN3CCCC3)CC2)n1 [CBK286072] | 92.1292%
10 | N#Cc1ccccc1CSc1nnc(Cc2cccc3ccccc23)n1-c1ccccc1 [CBK266633] | 57.3454%
11 | CN1CCC(N2CCN(C(=O)C3(c4ccccc4)CCCC3)CC2)CC1 [CBK149096] | 101.938%
12 | C=CCn1oc(=O)n(-c2ccc(OC)cc2)c1=O [CBK122773] | 135.204%
13 | O=C1/C(=C/c2c(NCCCn3ccnc3)nc3ccccn3c2=O)SC(=S)N1C1CCCCC1 [CBK264696] | 120.915%
14 | CCN(CC)CCn1nc2n(c1=O)-c1ccccc1SC(c1ccccc1)C2 (stereo not shown) [CBK016064] | 103.029%
15 | C=C(C)Cn1c(SCC(C)C)nnc1-c1cnccc1C [CBK200075T] | 132.023%
16 | CS(=O)(=O)N1CC[C@H](c2nc3ccccc3s2)C1 [CBK289374] | 135.199%
17 | CC(C)OC(=O)CN1C(=O)N2CCCN=C2c2ccccc21 [CBK284394] | 117.163%
18 | COc1ccc(C2NCCS2)cc1Br (stereo not shown) [CBK021053] | 103.103%
19 | CC(C(=O)Nc1sc2c(c1C(=O)NCc1ccco1)CCCC2)N1C(=O)c2ccccc2C1=O (stereo not shown) [CBK265603] | 100%
20 | CSc1nnc(CC2CCN(C(=O)Cn3nnnc3N)CC2)n1C [CBK306520] | 128.885%
21 | CN1N=C(c2ccc(N3CCOCC3)c(F)c2)CC1c1cnn(C)c1 (stereo not shown) [CBK305726] | 112.923%
22 | Cc1ccc(C(=O)/C=C(\Nc2cccc(C(F)(F)F)c2)C(=O)O)cc1 [CBK264366] | 118.536%
23 | COc1ccnc(N2CCN(C(=O)c3cccc4c3NCCC4)CC2)n1 [CBK306639] | 107.358%
24 | CC(C)OCc1ccc(C(=O)N2CCC(C(=O)O)CC2)cc1 [CBK297141] | 147.53%
25 | N#CCCN(C(=O)NCc1ccc2c(c1)OCO2)C1CCCCC1 [CBK156351] | 139.701%
26 | Cc1cc(C[C@@H]2CCC[C@H]2NCc2c(C)nn(C(C)C)c2C)on1 [CBK285453] | 111.798%
27 | CN1CCN(c2nc(-c3ccccc3CO)cn3ccnc23)CC1 [CBK066347] | 95.9694%

Shown with tabs: part of the list above.
Row	Structure (SMILES)	% of control remaining
4	Cc1cc(/C=C2/NC(=O)NC2=O)c(C)n1-c1ccc(S(N)(=O)=O)cc1 [CBK264747]	123.557%
5	CNS(=O)(=O)c1cc(C(=O)N2CCN(c3ccccc3)CC2)ccc1OC [CBK270192]	143.315%
7	CCCNc1nc(Cl)nc(NCc2cccnc2)n1 [CBK261995]	109.541%
12	C=CCn1oc(=O)n(-c2ccc(OC)cc2)c1=O [CBK122773]	135.204%
14	CCN(CC)CCn1nc2n(c1=O)-c1ccccc1SC(c1ccccc1)C2 (stereo not shown) [CBK016064]	103.029%
17	CC(C)OC(=O)CN1C(=O)N2CCCN=C2c2ccccc21 [CBK284394]	117.163%
23	COc1ccnc(N2CCN(C(=O)c3cccc4c3NCCC4)CC2)n1 [CBK306639]	107.358%

Remaining list, next part

Row | Structure (SMILES) | % of control remaining
28 | COc1ccc(F)c(CN(CC(C)(C)CN)C(=O)Nc2ccccc2C(C)(C)C)c1 [CBK002478C] | 130.62%
29 | c1ccc2c(N3CCCCC3)cnnc2c1 [CBK066897] | 83.9209%
30 | CC(C)C1c2cccn2CCN1S(=O)(=O)c1ccc2[nH]c(=O)[nH]c(=O)c2c1 (stereo not shown) [CBK286391] | 123.275%
31 | O=C(Nc1cccnc1)c1cc2cc(OC(F)(F)F)ccc2[nH]1 [CBK107313] | 100%
32 | O=C(c1cccs1)N1C[C@H](c2ccc(F)cc2)[C@H]2CN(Cc3ccccc3)CC[C@H]21 [CBK285544] | 86.088%
33 | Cc1ccccc1NC(=O)CC(C(=O)O)N1CCOCC1 (stereo not shown) [CBK266969] | 139.649%
34 | CCN1C(=O)C2(CC(=O)N(CC3CCCCC3)C2=O)c2cc(C)ccc21 (stereo not shown) [CBK075216] | 119.879%
35 | Cc1nc(C)c(CC(=O)Nc2cccc(CN3CCCC3)c2)s1 [CBK281426] | 87.9945%
36 | CSc1ncc(Cl)c(C(=O)NCCc2ccc(S(N)(=O)=O)cc2)n1 [CBK268679] | 124.207%
37 | CCc1ccc(CNC(=O)Cn2nnc(-c3ccc(CNC4CCC4)cc3)n2)cc1 [CBK155006T] | 131.27%
38 | O=S(=O)(Nc1ccc2[nH]ncc2c1)c1ccc(Oc2ccccc2)cc1 [CBK062522] | 96.1305%
39 | O=C(c1nccs1)C1CCN(C(=O)CC2CCCC2)CC1 [CBK284207] | 73.9656%
40 | O=c1[nH][nH]c2nc(O)cc(C(F)(F)F)c12 [CBK027081] | 116.672%
41 | N#Cc1ccc(CSc2cccc(F)c2)cc1 [CBK002918] | 79.9575%
42 | Cc1cc(-n2cccn2)ccc1CN1CCCCC1CN1CCOCC1 (stereo not shown) [CBK307442] | 106.854%
43 | Cc1ccc(-c2n[nH]c(=S)n2CCC(=O)NCc2ccc(-c3csc(C)n3)s2)cc1 [CBK297924] | 120.716%
44 | O=C(c1ccc(F)cc1)C1CCN(CC(O)COc2cccc3c2CCCC3)CC1 (stereo not shown) [CBK003583] | 122.333%
45 | O=C(O)CCC(=O)Nc1ccc(-c2nc3ccccc3o2)cc1 [CBK261330] | 112.5%
46 | O=C(c1cccs1)N1CCCN(Cc2cn3ccccc3n2)CC1 [CBK305304] | 108.737%
47 | Fc1cccc(-c2nc3cnccn3c2NCc2cccs2)c1 [CBK282363] | 151.16%
48 | NC1=NN2C(=C(c3ccc(O)c(C(=O)O)c3)NN2c2ccccc2)N1 [CBK025631] | 97.9187%
49 | CC(C)(C)OC(=O)N1CCC2(CC1)NC(=O)c1cc(-c3cccc(S(C)(=O)=O)c3)ccc1O2 [CBK131967] | 122.924%
50 | CCC(=O)Nc1ccc(-c2nc3ccccc3[nH]2)cc1 [CBK287561] | 131.516%
51 | O=C(c1ccco1)N1CCC(Cn2cncn2)(C2CCCCC2)CC1 [CBK136811] | 134.205%
52 | Cn1c(=O)c2c(nc(CN3CCCCC3)n2CCCc2ccccc2)n(C)c1=O [CBK269521] | 136.129%
53 | Cc1[nH]c(=S)[nH]c(=O)c1Cc1cccc2ccccc12 [CBK115563] | 92.3455%
54 | O=C(NCc1cccs1)c1cnoc1-c1ccc([N+](=O)[O-])cc1 [CBK153845] | 100%

Row | Structure (SMILES) | % of control remaining
55 | C=CCn1c(Cc2csc(NC(=O)c3cccc(Cl)c3)n2)n[nH]c1=S [CBK295314] | 137.857%
56 | CCCCc1nc(CS(=O)(=O)C(C)c2nc(C(C)C)no2)cs1 (stereo not shown) [CBK305707] | 100.621%
57 | COc1ccccc1CN(C(=O)Nc1ccc(S(C)(=O)=O)cc1)C1CC1 [CBK305787] | 109.947%
58 | CS(=O)(=O)c1cccc(-c2cnc(NCC3CC3)c(C(=O)Nc3ccc4c(c3)OCO4)c2)c1 [CBK076362] | 94.0669%
59 | CCOC(=O)C1CCCN(C(=O)Cn2ncc(Cl)c(Cl)c2=O)C1 (stereo not shown) [CBK305573] | 78.8542%
60 | O=S(=O)(c1cccc(F)c1)N1CCC(Cc2ccccc2)CC1 [CBK044828] | 108.325%
61 | COC(=O)c1ccccc1NC(=O)CNS(=O)(=O)c1ccc(C)cc1 [CBK266000] | 190.925%
62 | COc1ccc(CC(=O)NC(CCSC)c2nc3ccccc3[nH]2)cc1 (stereo not shown) [CBK306050] | 123.635%
63 | Cc1cc(C)n(C(C)CNC(=O)c2cc(C3CC3)on2)n1 (stereo not shown) [CBK283243] | 121.322%
64 | CN(C)CCNC(=O)c1ccc(-c2ccccc2S(=O)(=O)Nc2ccc(C(=O)O)c(O)c2)cc1 [CBK174050] | 129.909%
65 | COc1cc(/C=C2\SC(=S)N(CC(=O)NNC(=O)c3ccccc3O)C2=O)ccc1O [CBK261301] | 111.473%
66 | O=C(O)c1nn(-c2ccccc2)c2cc([N+](=O)[O-])ccc12 [CBK006532] | 97.4702%
67 | Cc1ccc(S(=O)(=O)NCCSCc2ccc(Cl)cc2)cc1[N+](=O)[O-] [CBK264056] | 93.7905%
68 | CCN(CC)S(=O)(=O)c1csc(C(=O)Nc2cccc([N+](=O)[O-])c2)c1 [CBK264505] | 100%
69 | CC(NC(=O)CCc1cn(C)c2ccccc12)c1ccccn1 (stereo not shown) [CBK281889] | 110.325%
70 | CN(C)c1ccc(-c2noc([C@@H]3CCCN3C)n2)cn1 [CBK288902] | 122.282%
71 | Cc1cc(=O)oc2cc(OC(=O)C(Cc3ccccc3)N3C(=O)c4ccccc4C3=O)ccc12 (stereo not shown) [CBK033943] | 100%
72 | COc1ccc(C(NC(=O)Cn2cccnc2=O)C2CC(O)C2)cn1 (stereo not shown) [CBK307527] | 146.002%
73 | Cc1cccc(-n2c(C#N)c(O)c3ccccc32)c1C [CBK115319] | 83.7864%
74 | COC(=O)c1ccc(NC(=O)CN(c2ccc(F)c(Cl)c2)S(C)(=O)=O)cc1 [CBK267657] | 106.394%
75 | CC(=O)Nc1cc(Cl)ccc1OS(=O)(=O)c1ccc(Cl)cc1 [CBK264992] | 116.464%
76 | Cc1ccccc1OCCNS(=O)(=O)c1cccc([N+](=O)[O-])c1 [CBK264195] | 100%
77 | Cc1noc(C)c1S(=O)(=O)Nc1ccccc1C(=O)O [CBK042371] | 104.792%
78 | Cc1ccccc1-c1ccc(C(=O)NC2CCCCC2)c(NCc2cccnc2)n1 [CBK076159] | 103%
79 | O=C(c1[nH]c2ccccc2c1NS(=O)(=O)Cc1ccccc1[N+](=O)[O-])N1CCOCC1 [CBK050079] | 89.2035%

From paper PMC12040169 (PLOS Biology, 2025)
